Values from PubChem BioAssay AID743121 (NCATS, 2013).
The whole screen tested about 26,000 reagents; shown is a part drawn at random. 167 of them (0.63%) count as active. 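Calls are per gene from RSA p-values that are not deposited; an individual active-marked siRNA can sensitise only weakly.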 The numbers tell different reagents against one gene apart. Further read-outs or replicates are left out here.

- Test: 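Genes whose silencing strengthens cell killing by camptothecin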 (primary screen)
- Cell system: MDA-MB-231 cells, a human breast cancer line
- Reagent: single siRNA against human genes, 20 nM siRNA (0.8 pmol per well)
- Timing: 120 h (drug added 48 h after transfection, read 72 h later)
- Conditions: camptothecin 20 nM (about EC30) for 72 h; vehicle 0.1% DMSO in parallel plates
- Measured: 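CellTiter-Glo ATP signal, scaled to control siRNA as percent viability; sensitisation given as log2 of untreated divided by camptothecin-treated viability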
- Direction: log2 vehicle/camptothecin viability: higher = stronger sensitisation to camptothecin
- Rule for the call: 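Active genes have an RSA gene-level p-value below 0.001, computed from the ratios of their separate siRNAs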

The first 4 records, to show the layout:
| gene | reagent no. | log2 vehicle/camptothecin viability | activity call |
| --- | --- | --- | --- |
| EVI2A (ecotropic viral integration site 2A) | 1 | -0.384 | inactive |
| EVI2A (ecotropic viral integration site 2A) | 2 | -0.0829 | inactive |
| EVI2A (ecotropic viral integration site 2A) | 3 | -0.0613 | inactive |
| EVI2A (ecotropic viral integration site 2A) | 4 | -0.654 | inactive |

The listing, from the first entry:
| gene | reagent no. | log2 vehicle/camptothecin viability | activity call |
| --- | --- | --- | --- |
| EVI2A (ecotropic viral integration site 2A) | 1 | -0.384 | inactive |
| EVI2A (ecotropic viral integration site 2A) | 2 | -0.0829 | inactive |
| EVI2A (ecotropic viral integration site 2A) | 3 | -0.0613 | inactive |
| EVI2A (ecotropic viral integration site 2A) | 4 | -0.654 | inactive |
| DERA (deoxyribose-phosphate aldolase) | 1 | 0.0279 | inactive |
| DERA (deoxyribose-phosphate aldolase) | 2 | 0.137 | inactive |
| DERA (deoxyribose-phosphate aldolase) | 3 | 0.721 | inactive |
| DERA (deoxyribose-phosphate aldolase) | 4 | -0.0205 | inactive |
| GDAP1 (ganglioside induced differentiation associated protein 1) | 1 | -0.471 | inactive |
| GDAP1 (ganglioside induced differentiation associated protein 1) | 2 | -0.589 | inactive |
| GDAP1 (ganglioside induced differentiation associated protein 1) | 3 | -0.344 | inactive |
| GDAP1 (ganglioside induced differentiation associated protein 1) | 4 | 0.276 | inactive |
| PER2 (period circadian regulator 2) | 1 | -0.166 | inactive |
| PER2 (period circadian regulator 2) | 2 | 0.0865 | inactive |
| PER2 (period circadian regulator 2) | 3 | -0.35 | inactive |
| PER2 (period circadian regulator 2) | 4 | -0.338 | inactive |
| CTNND2 (catenin delta 2) | 1 | -0.123 | inactive |
| CTNND2 (catenin delta 2) | 2 | 0.467 | inactive |
| CTNND2 (catenin delta 2) | 3 | -0.165 | inactive |
| ALDH3B2 (aldehyde dehydrogenase 3 family member B2) | 1 | -0.181 | inactive |
| ALDH3B2 (aldehyde dehydrogenase 3 family member B2) | 2 | -0.582 | inactive |
| ALDH3B2 (aldehyde dehydrogenase 3 family member B2) | 3 | -0.0432 | inactive |
| ALDH3B2 (aldehyde dehydrogenase 3 family member B2) | 4 | -0.0675 | inactive |
| PIK3R2 (phosphoinositide-3-kinase regulatory subunit 2) | 1 | 0.0956 | inactive |
| PIK3R2 (phosphoinositide-3-kinase regulatory subunit 2) | 2 | -0.454 | inactive |
| PIK3R2 (phosphoinositide-3-kinase regulatory subunit 2) | 3 | 0.663 | inactive |
| PIK3R2 (phosphoinositide-3-kinase regulatory subunit 2) | 4 | 0.183 | inactive |
| STK3 (serine/threonine kinase 3) | 1 | -0.0351 | inactive |
| STK3 (serine/threonine kinase 3) | 2 | -0.475 | inactive |
| STK3 (serine/threonine kinase 3) | 3 | -0.674 | inactive |
| STK3 (serine/threonine kinase 3) | 4 | -0.31 | inactive |
| EPHA1 (EPH receptor A1) | 1 | -0.2 | inactive |
| EPHA1 (EPH receptor A1) | 2 | -0.114 | inactive |
| EPHA1 (EPH receptor A1) | 3 | -0.0386 | inactive |
| EPHA1 (EPH receptor A1) | 4 | 0.0391 | inactive |
| TCF19 (transcription factor 19) | 1 | 0.268 | inactive |
| TCF19 (transcription factor 19) | 2 | 0.27 | inactive |
| TCF19 (transcription factor 19) | 3 | 0.036 | inactive |
| PRPF6 (pre-mRNA processing factor 6) | 1 | -0.641 | inactive |
| PRPF6 (pre-mRNA processing factor 6) | 2 | 0.0907 | inactive |
| PRPF6 (pre-mRNA processing factor 6) | 3 | -0.769 | inactive |
| RTN4R (reticulon 4 receptor) | 1 | -0.503 | inactive |
| RTN4R (reticulon 4 receptor) | 2 | -0.124 | inactive |
| RTN4R (reticulon 4 receptor) | 3 | 0.05 | inactive |
| KDELR2 (KDEL endoplasmic reticulum protein retention receptor 2) | 1 | 0.213 | inactive |
| KDELR2 (KDEL endoplasmic reticulum protein retention receptor 2) | 2 | -0.28 | inactive |
| KDELR2 (KDEL endoplasmic reticulum protein retention receptor 2) | 3 | -0.14 | inactive |
| KDELR2 (KDEL endoplasmic reticulum protein retention receptor 2) | 4 | 0.189 | inactive |
| ACVRL1 (activin A receptor like type 1) | 1 | -0.146 | inactive |
| ACVRL1 (activin A receptor like type 1) | 2 | -0.539 | inactive |
| ACVRL1 (activin A receptor like type 1) | 3 | -0.0469 | inactive |
| ACVRL1 (activin A receptor like type 1) | 4 | -0.283 | inactive |
| TRIM68 (tripartite motif containing 68) | 1 | -0.615 | inactive |
| TRIM68 (tripartite motif containing 68) | 2 | -0.258 | inactive |
| TRIM68 (tripartite motif containing 68) | 3 | -0.0073 | inactive |
| TRIM68 (tripartite motif containing 68) | 4 | -0.13 | inactive |
| MAPKBP1 (mitogen-activated protein kinase binding protein 1) | 1 | -0.177 | inactive |
| MAPKBP1 (mitogen-activated protein kinase binding protein 1) | 2 | -0.437 | inactive |
| MAPKBP1 (mitogen-activated protein kinase binding protein 1) | 3 | -0.285 | inactive |
| MAPKBP1 (mitogen-activated protein kinase binding protein 1) | 4 | -0.00354 | inactive |
| ADAM18 (ADAM metallopeptidase domain 18) | 1 | 0.0641 | inactive |
| ADAM18 (ADAM metallopeptidase domain 18) | 2 | -0.062 | inactive |
| ADAM18 (ADAM metallopeptidase domain 18) | 3 | -0.105 | inactive |
| ADAM18 (ADAM metallopeptidase domain 18) | 4 | -0.227 | inactive |
| PPT1 (palmitoyl-protein thioesterase 1) | 1 | -0.369 | inactive |
| PPT1 (palmitoyl-protein thioesterase 1) | 2 | 0.0334 | inactive |
| PPT1 (palmitoyl-protein thioesterase 1) | 3 | -0.0929 | inactive |
| PPT1 (palmitoyl-protein thioesterase 1) | 4 | -0.211 | inactive |
| INTS12 (integrator complex subunit 12) | 1 | -0.438 | inactive |
| INTS12 (integrator complex subunit 12) | 2 | -0.413 | inactive |
| INTS12 (integrator complex subunit 12) | 3 | 0.0898 | inactive |
| INTS12 (integrator complex subunit 12) | 4 | -0.338 | inactive |
| ADGRA1 (adhesion G protein-coupled receptor A1) | 1 | -0.0465 | inactive |
| ADGRA1 (adhesion G protein-coupled receptor A1) | 2 | -0.388 | inactive |
| ADGRA1 (adhesion G protein-coupled receptor A1) | 3 | -0.303 | inactive |
| ADGRA1 (adhesion G protein-coupled receptor A1) | 4 | -0.251 | inactive |
| CCNG1 (cyclin G1) | 1 | -0.109 | inactive |
| CCNG1 (cyclin G1) | 2 | 0.3 | inactive |
| CCNG1 (cyclin G1) | 3 | -0.19 | inactive |
| CCNG1 (cyclin G1) | 4 | -0.124 | inactive |
| UCHL1 (ubiquitin C-terminal hydrolase L1) | 1 | 0.0325 | inactive |
| UCHL1 (ubiquitin C-terminal hydrolase L1) | 2 | 0.0348 | inactive |
| UCHL1 (ubiquitin C-terminal hydrolase L1) | 3 | -0.0762 | inactive |
| UCHL1 (ubiquitin C-terminal hydrolase L1) | 4 | -0.0177 | inactive |
| HTR1F (5-hydroxytryptamine receptor 1F) | 1 | 0.169 | inactive |
| HTR1F (5-hydroxytryptamine receptor 1F) | 2 | 0.545 | inactive |
| HTR1F (5-hydroxytryptamine receptor 1F) | 3 | 0.777 | inactive |
| HTR1F (5-hydroxytryptamine receptor 1F) | 4 | -0.248 | inactive |
